Common to all, as to assay: affinity purification with mass spectrometry; tandem (sequential peptide) affinity purification of chromosomally SPA-tagged ACPs from stationary-phase PAO1 lysates: anti-FLAG M2 magnetic beads, 0.1% Triton X-100, TEV cleavage, calmodulin Sepharose, 4°C; untagged PAO1 as control; only proteins identified in both of two experiments reported
Assay [1] concerns the target AcpP with C-terminal SPA tag (strain CW20) (P. aeruginosa) (UniProt O54439).
In assay [2] the target is Acp3 with C-terminal SPA tag (strain CW21) (P. aeruginosa) (UniProt Q9HYR1).
The target in assay [3] is T1, Acp1 with C-terminal SPA tag (strain CW22) (P. aeruginosa) (UniProt O52658).
T1 sequence: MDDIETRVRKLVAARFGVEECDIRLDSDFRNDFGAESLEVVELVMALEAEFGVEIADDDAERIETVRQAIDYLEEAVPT

Amino acid sequences for entries named in this document (tags omitted). A change or cut given only in a name is not applied to a line headed by its entry.
UniProt O54439: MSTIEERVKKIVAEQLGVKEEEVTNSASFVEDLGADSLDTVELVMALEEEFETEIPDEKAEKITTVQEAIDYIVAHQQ
UniProt Q9HYR1: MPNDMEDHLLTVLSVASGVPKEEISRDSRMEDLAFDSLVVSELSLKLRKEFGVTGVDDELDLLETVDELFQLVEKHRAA
UniProt P23747: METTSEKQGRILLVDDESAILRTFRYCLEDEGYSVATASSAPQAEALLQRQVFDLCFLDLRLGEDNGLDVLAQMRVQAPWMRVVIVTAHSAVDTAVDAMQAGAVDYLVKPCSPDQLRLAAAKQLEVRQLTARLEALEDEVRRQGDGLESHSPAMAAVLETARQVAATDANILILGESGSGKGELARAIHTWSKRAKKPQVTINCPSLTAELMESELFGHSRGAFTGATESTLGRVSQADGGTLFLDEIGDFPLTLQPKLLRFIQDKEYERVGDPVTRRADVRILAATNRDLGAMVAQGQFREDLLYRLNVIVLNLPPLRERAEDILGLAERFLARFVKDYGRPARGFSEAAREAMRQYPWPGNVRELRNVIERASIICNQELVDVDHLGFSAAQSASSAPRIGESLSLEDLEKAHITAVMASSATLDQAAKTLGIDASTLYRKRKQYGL
UniProt Q9HXI8: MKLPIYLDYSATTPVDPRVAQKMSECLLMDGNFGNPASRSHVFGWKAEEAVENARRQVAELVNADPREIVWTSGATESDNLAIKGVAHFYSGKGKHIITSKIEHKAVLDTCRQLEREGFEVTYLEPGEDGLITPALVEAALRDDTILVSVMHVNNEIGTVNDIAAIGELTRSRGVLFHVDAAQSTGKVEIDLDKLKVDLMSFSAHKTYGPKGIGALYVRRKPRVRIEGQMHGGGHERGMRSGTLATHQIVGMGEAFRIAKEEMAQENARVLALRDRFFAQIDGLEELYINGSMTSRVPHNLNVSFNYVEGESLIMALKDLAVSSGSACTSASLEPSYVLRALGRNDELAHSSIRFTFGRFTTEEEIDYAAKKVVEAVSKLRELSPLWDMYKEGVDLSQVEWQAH
UniProt P53593: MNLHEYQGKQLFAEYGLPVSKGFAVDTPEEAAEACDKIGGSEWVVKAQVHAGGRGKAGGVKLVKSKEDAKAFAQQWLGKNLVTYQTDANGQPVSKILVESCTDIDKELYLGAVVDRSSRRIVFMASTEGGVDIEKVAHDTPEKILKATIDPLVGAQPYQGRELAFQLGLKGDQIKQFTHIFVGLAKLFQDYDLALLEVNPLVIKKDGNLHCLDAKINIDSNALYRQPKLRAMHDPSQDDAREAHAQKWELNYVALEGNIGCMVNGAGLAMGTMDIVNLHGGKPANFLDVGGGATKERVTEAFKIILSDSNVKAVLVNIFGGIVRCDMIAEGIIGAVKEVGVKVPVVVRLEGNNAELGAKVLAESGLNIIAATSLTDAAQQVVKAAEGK
UniProt P09591: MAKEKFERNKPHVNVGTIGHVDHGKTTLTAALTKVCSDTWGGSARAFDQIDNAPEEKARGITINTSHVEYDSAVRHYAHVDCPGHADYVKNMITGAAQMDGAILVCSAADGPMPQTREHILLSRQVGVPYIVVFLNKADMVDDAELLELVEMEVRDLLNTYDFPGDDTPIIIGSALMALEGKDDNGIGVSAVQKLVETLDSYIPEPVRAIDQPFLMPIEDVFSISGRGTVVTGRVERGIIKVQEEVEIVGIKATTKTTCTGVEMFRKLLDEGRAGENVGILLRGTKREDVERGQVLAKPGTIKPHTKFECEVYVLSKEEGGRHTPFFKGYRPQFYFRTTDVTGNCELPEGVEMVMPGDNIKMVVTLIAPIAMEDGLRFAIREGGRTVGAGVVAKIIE

Results are given in words; binding and its absence hold for the method and conditions named. Binding seen in cells or lysates may run through a third protein. Here binding means that the protein was enriched with, or labelled near, the bait; the list need not be complete. For some assays here: Tags and fused reporters may be left off the sequences shown.

In the case of “AlgB, alginate biosynthesis transcriptional regulator (from UniProt P23747 1-449)”, in assay [1], the binding result is recorded as “binds”.
With “IscS, cysteine desulfurase (from UniProt Q9HXI8 1-404) (enzyme)”, the binding result in assay [2] and in assay [1] was “binds” throughout.
As to “SucC, succinyl-CoA ligase (from UniProt P53593 1-388) (enzyme)”, the binding entry in assay [2] is “binds”.
“Tuf1, elongation factor Tu (from UniProt P09591 1-397)”: the binding result in assay [3] was “binds”.
